In doi:10.1101/2021.11.26.470079:
These are yes or no findings as the source states them, for the method shown.

Molecular target: full-length PcoB (E. coli) (UniProt Q47453)
Test: SEC

binding: no binding
B1: full-length PcoB (protein, UniProt Q47453 24-296)
chain: AGSVSADPHAGHDMSAMQMPADENFTEMTSMEPIVTESRTPIPPVTDADRKAAFGNLQGHAIHDSAINYLVLLDQLEWQRSDNTNNFSWSVNSWIGGDTDRIWLKSEGERSNGETEAAEAQLLWGHAVGPWWDLVAGVRQDFRPASARTWAAVGFQGLALYNFESEITGFVSNGGKAALRLGGEYDVLLTNRLILQPSYEVNFYSQDDESRGRGRGLTDTELGLRLRYEIRREFAPYIGVSWNQLYGKTSDMAKREGEKDHQVVFLAGARIWF
